# Some of the results follow.
# B1: SAOUHSC 02783 (Staphylococcus aureus), Q5HD69 (protein)
# chain: MIHSKKLTLGICLVLLIILIVGYVIMTKTNGRNAQIKDTFNQTLKLYPTKNLDDFYDKEGFRDQEFKKGDKGTWIVNSEMVIEPKGKDMETRGMVLYINRNTRTTKGYYFISEMTDDSNGRPKDDEKRYPVKMEHNKIIPTKPLPNDKLKKEIENFKFFVQYGNFKDINDYKDGDISYNPNVPSYSAKYQLNNDDYNVQQLRKRYDIPTKQAPKLLLKGDGDLKGSSVGSRSLEFTFVENKEENIYFTDSVQYTPSEDTRYESN
# What was measured:
# Assay in all cases: glycan array binding signal (z-score within array); higher = stronger binding
# Settings in all cases: glycan notation: IUPAC condensed, linker removed
# [1] = biological target: Neu5Ac(a2-3)Gal(b1-4)GlcNAc(b1-6)GalNAc
# Method in brief: (§1)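 Arrays were curated from the Consortium for Functional Glycomics database, 3228 in total, and kept only where the protein sequence was available. Binding is expressed as a within-array Z-score. This score was averaged across arrays of the same protein sequence at different concentrations or buffers and across linkers, and negative values can be read as non-binding.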
# [2] = biological target: Neu5Ac(a2-3)Gal(b1-4)GlcNAc(b1-6)[Gal(b1-3)]GalNAc
# Method in brief: as §1
# [3] = biological target: Neu5Ac(a2-3)Gal(b1-4)GlcNAc(b1-6)[Neu5Ac(a2-3)Gal(b1-3)]GalNAc
# Method in brief: as §1
# [4] = biological target: Neu5Ac(a2-3)Gal(b1-4)GlcNAc6S
# Method in brief: as §1
# [5] = biological target: Neu5Ac(a2-3)Gal(b1-4)[Fuc(a1-3)]GlcNAc
# Method in brief: as §1
# [6] = biological target: Neu5Ac(a2-3)Gal(b1-4)[Fuc(a1-3)]GlcNAc(b1-2)Man
# Method in brief: as §1
# [7] = biological target: Neu5Ac(a2-3)Gal(b1-4)[Fuc(a1-3)]GlcNAc(b1-3)Gal
# Method in brief: as §1
# [8] = biological target: Neu5Ac(a2-3)Gal(b1-4)[Fuc(a1-3)]GlcNAc(b1-3)Gal(b1-4)GlcNAc
# Method in brief: as §1
# [9] = biological target: Neu5Ac(a2-3)Gal(b1-4)[Fuc(a1-3)]GlcNAc(b1-3)Gal(b1-4)[Fuc(a1-3)]GlcNAc(b1-3)Gal(b1-4)[Fuc(a1-3)]GlcNAc
# Method in brief: as §1
# [10] = biological target: Neu5Ac(a2-3)Gal(b1-4)[Fuc(a1-3)]GlcNAc(b1-3)GalNAc
# Method in brief: as §1
# [11] = biological target: Neu5Ac(a2-3)Gal(b1-4)[Fuc(a1-3)]GlcNAc(b1-6)[Gal(b1-3)]GalNAc
# Method in brief: as §1
# [12] = biological target: Neu5Ac(a2-3)Gal(b1-4)[Fuc(a1-3)]GlcNAc(b1-6)[Neu5Ac(a2-3)Gal(b1-3)]GalNAc
# Method in brief: as §1
# [13] = biological target: Neu5Ac(a2-3)Gal(b1-4)[Fuc(a1-3)]GlcNAc6S
# Method in brief: as §1
# [14] = biological target: Neu5Ac(a2-3)Gal6S(b1-4)GlcNAc
# Method in brief: as §1
# [15] = biological target: Neu5Ac(a2-3)Gal6S(b1-4)[Fuc(a1-3)]GlcNAc
# Method in brief: as §1
# [16] = biological target: Neu5Ac(a2-3)GalNAc
# Method in brief: as §1
# [17] = biological target: Neu5Ac(a2-3)GalNAc(b1-4)GlcNAc
# Method in brief: as §1
# [18] = biological target: Neu5Ac(a2-3)[GalNAc(b1-4)]Gal(b1-4)Glc
# Method in brief: as §1
# [19] = biological target: Neu5Ac(a2-3)[GalNAc(b1-4)]Gal(b1-4)GlcNAc
# Method in brief: as §1
# [20] = biological target: Neu5Ac(a2-3)[GalNAc(b1-4)]Gal(b1-4)GlcNAc(b1-3)GalNAc
# Method in brief: as §1
# [21] = biological target: Neu5Ac(a2-3)[Neu5Ac(a2-6)]GalNAc
# Method in brief: as §1
# [22] = biological target: Neu5Ac(a2-6)Gal
# Method in brief: as §1
# [23] = biological target: Neu5Ac(a2-6)Gal(b1-3)GlcNAc(b1-3)[Gal(b1-4)GlcNAc(b1-6)]Gal(b1-4)Glc
# Method in brief: as §1
# [24] = biological target: Neu5Ac(a2-6)Gal(b1-4)Glc
# Method in brief: as §1
# [25] = biological target: Neu5Ac(a2-6)Gal(b1-4)GlcNAc
# Method in brief: as §1
# [26] = biological target: Neu5Ac(a2-6)Gal(b1-4)GlcNAc(b1-2)Man
# Method in brief: as §1
# [27] = biological target: Neu5Ac(a2-6)Gal(b1-4)GlcNAc(b1-2)Man(a1-3)Man(b1-4)GlcNAc(b1-4)GlcNAc
# Method in brief: as §1
# [28] = biological target: Neu5Ac(a2-6)Gal(b1-4)GlcNAc(b1-2)Man(a1-3)[Gal(b1-4)GlcNAc(b1-2)Man(a1-6)]Man(b1-4)GlcNAc(b1-4)GlcNAc
# Method in brief: as §1
# [29] = biological target: Neu5Ac(a2-6)Gal(b1-4)GlcNAc(b1-2)Man(a1-3)[GlcNAc(b1-2)Man(a1-6)]Man(b1-4)GlcNAc(b1-4)GlcNAc
# Method in brief: as §1
# [30] = biological target: Neu5Ac(a2-6)Gal(b1-4)GlcNAc(b1-2)Man(a1-3)[GlcNAc(b1-4)][Neu5Ac(a2-6)Gal(b1-4)GlcNAc(b1-2)Man(a1-6)]Man(b1-4)GlcNAc(b1-4)GlcNAc
# Method in brief: as §1
# [31] = biological target: Neu5Ac(a2-6)Gal(b1-4)GlcNAc(b1-2)Man(a1-3)[Man(a1-6)]Man(b1-4)GlcNAc(b1-4)GlcNAc
# Method in brief: as §1
binder,measurement,setting,value
B1,glycan array binding signal (z-score),[1],-0.463
same,glycan array binding signal (z-score),[2],-0.423
same,glycan array binding signal (z-score),[3],-0.818
same,glycan array binding signal (z-score),[4],-1.07
same,glycan array binding signal (z-score),[5],-1.44
same,glycan array binding signal (z-score),[6],-1.22
same,glycan array binding signal (z-score),[7],-0.162
same,glycan array binding signal (z-score),[8],0.615
same,glycan array binding signal (z-score),[9],-1.17
same,glycan array binding signal (z-score),[10],0.742
same,glycan array binding signal (z-score),[11],0.664
same,glycan array binding signal (z-score),[12],-1.13
same,glycan array binding signal (z-score),[13],0.261
same,glycan array binding signal (z-score),[14],-0.652
same,glycan array binding signal (z-score),[15],0.323
same,glycan array binding signal (z-score),[16],-0.608
same,glycan array binding signal (z-score),[17],-0.653
same,glycan array binding signal (z-score),[18],0.453
same,glycan array binding signal (z-score),[19],-0.78
same,glycan array binding signal (z-score),[20],0.217
same,glycan array binding signal (z-score),[21],-0.905
same,glycan array binding signal (z-score),[22],-0.807
same,glycan array binding signal (z-score),[23],0.156
same,glycan array binding signal (z-score),[24],0.228
same,glycan array binding signal (z-score),[25],-0.274
same,glycan array binding signal (z-score),[26],2.55
same,glycan array binding signal (z-score),[27],0.71
same,glycan array binding signal (z-score),[28],0.154
same,glycan array binding signal (z-score),[29],-0.396
same,glycan array binding signal (z-score),[30],0.127
same,glycan array binding signal (z-score),[31],0.298

# Part of the list above, tab-delimited:
binder	measurement	setting	value
B1	glycan array binding signal (z-score)	[15]	0.323
same	glycan array binding signal (z-score)	[23]	0.156

# From the supplement of paper PMC8728848
